Experimental data reported in patent publication EP1383510B1, “BISPHOSPHONATE CONJUGATES AND METHODS OF MAKING AND USING THE SAME” (priority 2001, dated 2002).

Assay: Binding of novel bisphosphonate conjugates on hydroxyapatite powder (UV spectra before/after treatment)
Settings: for peaks absorbency Before Hydroxyapatite addition: pH 7.0, 0.1 M Tris-HCl, 0.15 M NaCl, at peak wavelength; for peaks absorbency After Hydroxyapatite addition: supernatant after 10 minutes shaking with hydroxyapatite, pH 7.0
Protocol: To estimate the binding of NBC on hydroxyapatite (the mineral component of bone) UV spectra of NBC at pH7 were recorded before and after treatment with hydroxyapatite. […] The supernatant was separated and an absorption spectrum of the supernatant was recorded.

Row | Structure (SMILES) | peaks absorbency Before Hydroxyapatite addition | peaks absorbency After Hydroxyapatite addition
1 | Cc1ncc(CO)c(CNC(P(=O)(O)O)P(=O)(O)O)c1O [(iv), 1 -(N-pyridoxyl amino) -methylen-1, 1 -bisphosphonic acid] | 0,463 | 0
2 | CC(O)(P(=O)(O)O)P(=O)(O)OP(=O)(O)OCC1OC(n2cc(F)c(=O)[nH]c2=O)C(O)C1O (centres unmarked) [VI, Anhydride of 5-fluorouridine-5'-monophosphoric acid and 1-hydroxyethylidene-1,1-bisphosphonic acid] | 0,567 | 0,172
3 | O=c1[nH]c(=O)n(COCCOCCOP(=O)(O)CP(=O)(O)O)cc1F [II, Anhydride of 1-([2-{hydroxyethoxy}ethoxy]methylene)-5-fluorouracil and methylenediphosphonic acid] | 0,667 | 0,085
4 | Cc1ncc(CO)c(CNCCC(O)(P(=O)(O)O)P(=O)(O)O)c1O [(ii), 3-(N-pyridoxylamino) -1-hydroxypropyliden-1,1-bisphosphonic acid] | 0,758 | 0
5 | Cc1ncc(COP(=O)(O)O)c(CNC(P(=O)(O)O)P(=O)(O)O)c1O [(iii), 1 - (N-[5 '-phospho] -pyridoxylamino)-methylene-1,1-bisphosphonic acid] | 0,462 | 0
6 | Cc1ncc(COP(=O)(O)O)c(CNCCC(O)(P(=O)(O)O)P(=O)(O)O)c1O [(i), 3 - (N-[5 '-phospho] -pyridoxylamino) -1-hydroxypropyliden-1,1-bisphosphonic acid] | 0,391 | 0
7 | O=c1[nH]c(=O)n(C2OC(COP(=O)(O)OP(=O)(O)CP(=O)(O)O)C(O)C2O)cc1F (centres unmarked) [III, Anhydride of 5-fluorouridine-5'-monophosphoric acid and methylenediphosphonic acid] | 0,778 | 0,233
